Test results reported in PMC7822176, “Pursuing the Complexity of Alzheimer’s Disease: Discovery of Fluoren-9-Amines as Selective Butyrylcholinesterase Inhibitors and N-Methyl-D-Aspartate Receptor Antagonists” (Biomolecules, 2020).

How the values were obtained:
[1] = system: hCMEC/D3 cell monolayer; assay: in vitro
Description: (§1) The D3 assay evaluates the ability of compounds to diffuse from the donor compartment through the D3/hCMEC cell membrane into the acceptor compartment. The D3 cells were seeded on a PET membrane (area 1.12 cm^2) with 3-µm pores of the 12-well plates with 12-mm inserts. […] The donor solution (750 µL) was added to the donor compartment (insert), and the same volume of Opti-MEM was added into the acceptor. The concentration of the drug in both compartments was measured by UV-VIS spectrophotometry in 5, 15, 30, and 60 min of incubation in triplicates. The apparent permeability coefficient (Papp) was calculated from the concentration ratios. Tightness of the D3 monolayer was conducted by the fluorescein isothiocyanate (FITC) test after each experiment. […] (1) Papp= dC/dt × Vr/A × C0 • A: area of the well/cell monolayer, • dC/dt: amount in the receiver compartment in given time, • Vr: volume of the receiver compartment, and • C0: the initial concentration of tested compounds.

[2] = in vitro; conditions: human
Description: as §1

For `COc1cc2c(cc1OC)C(=O)C(CC1CCN(Cc3ccccc3)CC1)C2` (centres unmarked) [Donepezil], the “CNS (+/−)” value [1] was “CNS +” and the Papp [2] was 242 ± 28.3 nm/s.
